Measurements reported in paper PMC10520678.
No constants are given. Whether binding was seen depends on the method and setting. Binding seen in cells or lysates may run through a third protein. A yes stands for co-enrichment or nearness to the bait. Other partners may have been found.

Chains of the proteins cited; added tags and fusions are not shown. Residues count along the entry.
UniProt Q08722, residues 19-323: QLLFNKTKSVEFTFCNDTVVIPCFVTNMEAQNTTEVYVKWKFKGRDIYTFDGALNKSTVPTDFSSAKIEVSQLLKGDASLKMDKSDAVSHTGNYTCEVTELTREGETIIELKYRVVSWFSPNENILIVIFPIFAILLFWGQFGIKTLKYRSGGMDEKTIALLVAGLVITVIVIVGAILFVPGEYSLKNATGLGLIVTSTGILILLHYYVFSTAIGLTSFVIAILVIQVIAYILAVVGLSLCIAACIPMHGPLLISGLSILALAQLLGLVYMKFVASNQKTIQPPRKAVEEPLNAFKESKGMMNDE
UniProt P19474: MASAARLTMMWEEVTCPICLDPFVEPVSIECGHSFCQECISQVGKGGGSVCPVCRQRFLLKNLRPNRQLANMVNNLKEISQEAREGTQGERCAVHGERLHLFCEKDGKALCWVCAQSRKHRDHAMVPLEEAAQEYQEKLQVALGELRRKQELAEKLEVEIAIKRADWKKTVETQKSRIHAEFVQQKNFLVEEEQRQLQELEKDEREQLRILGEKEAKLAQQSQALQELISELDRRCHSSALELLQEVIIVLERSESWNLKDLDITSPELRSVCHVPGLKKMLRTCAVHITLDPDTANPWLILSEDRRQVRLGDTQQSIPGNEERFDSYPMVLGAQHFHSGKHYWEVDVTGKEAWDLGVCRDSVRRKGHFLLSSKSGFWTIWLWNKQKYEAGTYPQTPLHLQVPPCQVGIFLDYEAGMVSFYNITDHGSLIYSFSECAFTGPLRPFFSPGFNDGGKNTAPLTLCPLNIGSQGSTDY

Target: CD47 (integrin-associated protein), endogenous in U251 cells (human (endogenous in U251)) (UniProt Q08722)
Assay: affinity purification with mass spectrometry; mass spectrum analyses of immunoprecipitated CD47; cells not stated for this experiment

binding: binds
Substance: TRIM21 (tripartite motif-containing protein 21), endogenous in U251 cells (from UniProt P19474 1-475) (enzyme)
